The list shows a part of the results.
Compound: Cc1cc(ccc1-c1ccccc1)C(=O)N1CCCN(CC1)C(=O)CCl [compound 10]
Test: probe-labelled cysteine peptide fold change vs DMSO (competition) (log2 fold change); higher = less target engagement (more negative = stronger competition)
Settings: THP-1, incubation time: 4 h
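Further: competitive profiling in live THP-1 cells: cysteine peptides tagged with an iodoacetamide desthiobiotin (IA-DTB) probe, intensity after compound treatment relative to DMSO-treated cells.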

By UniProt entry, the sequences of proteins in these tests, tags left out. Where a name states a change or a piece, a line headed by the entry shows the natural chain unless it says otherwise.
UniProt P05771, whole entry, looked up: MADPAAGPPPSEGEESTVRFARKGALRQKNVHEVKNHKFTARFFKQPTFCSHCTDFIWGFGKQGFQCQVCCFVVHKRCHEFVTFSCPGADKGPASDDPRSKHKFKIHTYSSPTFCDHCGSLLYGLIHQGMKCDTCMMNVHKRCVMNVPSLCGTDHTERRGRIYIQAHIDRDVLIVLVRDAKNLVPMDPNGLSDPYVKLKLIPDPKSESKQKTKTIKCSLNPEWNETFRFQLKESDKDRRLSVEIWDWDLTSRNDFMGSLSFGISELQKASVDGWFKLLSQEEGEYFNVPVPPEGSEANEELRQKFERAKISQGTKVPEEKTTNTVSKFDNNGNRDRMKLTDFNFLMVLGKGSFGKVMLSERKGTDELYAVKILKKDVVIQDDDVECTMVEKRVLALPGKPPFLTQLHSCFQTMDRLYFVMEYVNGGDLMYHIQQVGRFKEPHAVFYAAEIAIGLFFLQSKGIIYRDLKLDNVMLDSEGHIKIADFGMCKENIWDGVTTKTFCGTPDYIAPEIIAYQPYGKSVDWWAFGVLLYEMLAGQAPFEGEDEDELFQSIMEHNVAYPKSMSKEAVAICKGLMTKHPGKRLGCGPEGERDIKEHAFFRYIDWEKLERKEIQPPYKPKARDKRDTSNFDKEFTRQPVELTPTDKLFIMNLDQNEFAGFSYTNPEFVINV
UniProt Q05655: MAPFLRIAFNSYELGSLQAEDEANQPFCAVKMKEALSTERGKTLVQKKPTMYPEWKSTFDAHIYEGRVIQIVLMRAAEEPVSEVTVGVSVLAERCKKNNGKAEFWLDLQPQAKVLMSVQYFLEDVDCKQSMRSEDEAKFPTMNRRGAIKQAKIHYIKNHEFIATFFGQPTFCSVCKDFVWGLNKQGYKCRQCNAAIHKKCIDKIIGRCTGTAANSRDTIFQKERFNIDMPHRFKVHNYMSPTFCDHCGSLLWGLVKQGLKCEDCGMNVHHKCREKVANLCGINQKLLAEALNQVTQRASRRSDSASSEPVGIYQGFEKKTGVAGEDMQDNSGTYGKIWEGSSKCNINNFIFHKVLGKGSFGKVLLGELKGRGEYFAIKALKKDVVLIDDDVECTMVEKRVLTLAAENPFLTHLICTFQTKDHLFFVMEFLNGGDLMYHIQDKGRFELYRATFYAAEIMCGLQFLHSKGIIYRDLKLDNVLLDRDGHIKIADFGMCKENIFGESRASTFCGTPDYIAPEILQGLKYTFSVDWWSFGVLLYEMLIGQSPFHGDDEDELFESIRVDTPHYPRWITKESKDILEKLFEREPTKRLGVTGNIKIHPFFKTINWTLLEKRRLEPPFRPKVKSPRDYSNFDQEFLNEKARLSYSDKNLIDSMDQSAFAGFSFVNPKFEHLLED
UniProt O94906: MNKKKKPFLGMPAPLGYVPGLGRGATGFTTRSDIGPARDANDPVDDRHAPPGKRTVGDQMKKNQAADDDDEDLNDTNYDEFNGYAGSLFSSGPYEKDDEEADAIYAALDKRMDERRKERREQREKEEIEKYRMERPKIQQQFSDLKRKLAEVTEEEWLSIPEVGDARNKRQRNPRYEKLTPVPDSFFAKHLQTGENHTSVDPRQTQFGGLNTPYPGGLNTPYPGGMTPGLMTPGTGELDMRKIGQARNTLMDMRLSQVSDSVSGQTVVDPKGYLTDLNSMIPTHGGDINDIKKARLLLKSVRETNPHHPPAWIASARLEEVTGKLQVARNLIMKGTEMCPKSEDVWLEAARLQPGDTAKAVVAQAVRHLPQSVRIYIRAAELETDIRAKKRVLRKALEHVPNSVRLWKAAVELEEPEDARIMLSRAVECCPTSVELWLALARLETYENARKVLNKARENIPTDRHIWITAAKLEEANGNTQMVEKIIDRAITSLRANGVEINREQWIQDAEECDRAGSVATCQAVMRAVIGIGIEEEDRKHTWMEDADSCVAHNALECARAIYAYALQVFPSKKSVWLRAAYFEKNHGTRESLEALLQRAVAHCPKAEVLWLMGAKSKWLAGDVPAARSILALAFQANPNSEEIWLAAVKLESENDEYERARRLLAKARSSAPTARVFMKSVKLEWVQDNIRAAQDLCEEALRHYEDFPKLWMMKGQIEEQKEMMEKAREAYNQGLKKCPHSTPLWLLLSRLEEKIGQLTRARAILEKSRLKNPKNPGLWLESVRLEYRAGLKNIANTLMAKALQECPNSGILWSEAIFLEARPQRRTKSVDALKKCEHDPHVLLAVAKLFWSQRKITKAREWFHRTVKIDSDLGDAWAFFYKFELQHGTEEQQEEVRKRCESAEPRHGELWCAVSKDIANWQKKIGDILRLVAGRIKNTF
UniProt Q5THK1: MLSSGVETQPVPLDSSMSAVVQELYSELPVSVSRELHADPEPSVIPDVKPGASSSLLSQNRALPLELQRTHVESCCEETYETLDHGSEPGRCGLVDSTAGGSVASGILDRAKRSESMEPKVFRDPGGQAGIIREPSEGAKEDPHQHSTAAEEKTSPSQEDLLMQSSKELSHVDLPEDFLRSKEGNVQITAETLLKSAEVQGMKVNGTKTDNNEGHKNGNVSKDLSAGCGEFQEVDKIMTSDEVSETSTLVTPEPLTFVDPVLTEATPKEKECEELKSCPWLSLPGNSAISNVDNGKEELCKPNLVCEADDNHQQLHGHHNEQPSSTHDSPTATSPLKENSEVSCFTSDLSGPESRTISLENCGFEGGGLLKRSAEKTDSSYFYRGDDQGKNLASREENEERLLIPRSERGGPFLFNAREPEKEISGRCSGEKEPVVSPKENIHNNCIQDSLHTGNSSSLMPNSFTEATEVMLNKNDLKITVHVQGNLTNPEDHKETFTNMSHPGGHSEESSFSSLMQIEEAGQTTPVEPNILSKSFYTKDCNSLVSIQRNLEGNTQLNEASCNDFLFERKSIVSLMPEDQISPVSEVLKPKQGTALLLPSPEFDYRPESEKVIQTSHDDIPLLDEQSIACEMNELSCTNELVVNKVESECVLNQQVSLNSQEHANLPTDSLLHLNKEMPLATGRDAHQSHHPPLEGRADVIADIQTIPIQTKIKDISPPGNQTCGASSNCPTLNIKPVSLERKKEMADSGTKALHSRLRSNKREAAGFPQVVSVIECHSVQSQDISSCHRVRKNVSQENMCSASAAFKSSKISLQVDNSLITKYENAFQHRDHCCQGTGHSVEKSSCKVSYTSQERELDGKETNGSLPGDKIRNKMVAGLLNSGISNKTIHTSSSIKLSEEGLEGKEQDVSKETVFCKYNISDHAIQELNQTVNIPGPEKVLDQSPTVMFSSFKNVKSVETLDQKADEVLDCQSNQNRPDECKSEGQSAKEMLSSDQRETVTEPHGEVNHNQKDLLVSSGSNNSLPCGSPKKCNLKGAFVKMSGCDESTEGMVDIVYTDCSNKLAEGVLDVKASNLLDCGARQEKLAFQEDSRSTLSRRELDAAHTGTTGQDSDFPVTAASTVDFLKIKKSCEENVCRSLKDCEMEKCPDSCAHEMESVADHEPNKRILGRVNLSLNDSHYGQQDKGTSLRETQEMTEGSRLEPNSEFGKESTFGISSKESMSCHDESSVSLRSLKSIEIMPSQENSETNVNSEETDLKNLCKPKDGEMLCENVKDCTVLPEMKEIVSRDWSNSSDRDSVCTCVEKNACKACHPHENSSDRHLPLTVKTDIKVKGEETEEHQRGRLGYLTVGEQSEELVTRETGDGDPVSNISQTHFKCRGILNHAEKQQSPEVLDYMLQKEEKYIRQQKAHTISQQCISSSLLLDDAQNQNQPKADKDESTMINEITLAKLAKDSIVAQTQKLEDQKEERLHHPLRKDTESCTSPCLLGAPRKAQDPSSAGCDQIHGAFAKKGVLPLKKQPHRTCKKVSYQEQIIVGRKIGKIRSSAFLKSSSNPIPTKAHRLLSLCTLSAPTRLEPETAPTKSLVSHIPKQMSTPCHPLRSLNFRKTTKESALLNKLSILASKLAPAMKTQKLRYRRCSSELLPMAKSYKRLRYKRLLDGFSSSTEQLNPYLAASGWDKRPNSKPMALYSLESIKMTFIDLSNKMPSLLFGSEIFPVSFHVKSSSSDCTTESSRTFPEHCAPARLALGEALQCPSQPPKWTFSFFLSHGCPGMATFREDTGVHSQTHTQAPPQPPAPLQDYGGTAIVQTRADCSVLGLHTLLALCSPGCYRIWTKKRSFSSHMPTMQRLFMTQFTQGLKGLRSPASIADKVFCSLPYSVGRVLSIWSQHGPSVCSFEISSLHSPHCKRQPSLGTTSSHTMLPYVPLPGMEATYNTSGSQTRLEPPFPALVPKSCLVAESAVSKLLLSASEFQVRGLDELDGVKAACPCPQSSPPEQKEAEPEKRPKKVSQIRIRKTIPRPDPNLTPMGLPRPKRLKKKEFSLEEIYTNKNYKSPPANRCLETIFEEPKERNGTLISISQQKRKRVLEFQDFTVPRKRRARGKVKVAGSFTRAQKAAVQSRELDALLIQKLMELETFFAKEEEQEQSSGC
UniProt O60678: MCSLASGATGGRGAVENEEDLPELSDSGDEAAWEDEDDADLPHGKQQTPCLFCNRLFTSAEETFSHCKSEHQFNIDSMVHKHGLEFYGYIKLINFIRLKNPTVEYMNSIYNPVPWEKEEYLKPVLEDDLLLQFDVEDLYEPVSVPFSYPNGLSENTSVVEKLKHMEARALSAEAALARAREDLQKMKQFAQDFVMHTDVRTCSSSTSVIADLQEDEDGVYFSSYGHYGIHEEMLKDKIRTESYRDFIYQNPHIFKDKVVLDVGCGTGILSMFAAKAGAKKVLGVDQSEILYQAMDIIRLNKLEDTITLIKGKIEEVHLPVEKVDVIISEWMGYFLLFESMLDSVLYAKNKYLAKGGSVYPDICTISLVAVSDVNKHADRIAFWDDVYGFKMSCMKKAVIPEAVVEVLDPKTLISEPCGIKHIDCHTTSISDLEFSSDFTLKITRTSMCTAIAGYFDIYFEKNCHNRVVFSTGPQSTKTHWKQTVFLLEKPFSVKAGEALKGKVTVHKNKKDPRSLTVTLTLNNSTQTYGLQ
UniProt Q86UA1: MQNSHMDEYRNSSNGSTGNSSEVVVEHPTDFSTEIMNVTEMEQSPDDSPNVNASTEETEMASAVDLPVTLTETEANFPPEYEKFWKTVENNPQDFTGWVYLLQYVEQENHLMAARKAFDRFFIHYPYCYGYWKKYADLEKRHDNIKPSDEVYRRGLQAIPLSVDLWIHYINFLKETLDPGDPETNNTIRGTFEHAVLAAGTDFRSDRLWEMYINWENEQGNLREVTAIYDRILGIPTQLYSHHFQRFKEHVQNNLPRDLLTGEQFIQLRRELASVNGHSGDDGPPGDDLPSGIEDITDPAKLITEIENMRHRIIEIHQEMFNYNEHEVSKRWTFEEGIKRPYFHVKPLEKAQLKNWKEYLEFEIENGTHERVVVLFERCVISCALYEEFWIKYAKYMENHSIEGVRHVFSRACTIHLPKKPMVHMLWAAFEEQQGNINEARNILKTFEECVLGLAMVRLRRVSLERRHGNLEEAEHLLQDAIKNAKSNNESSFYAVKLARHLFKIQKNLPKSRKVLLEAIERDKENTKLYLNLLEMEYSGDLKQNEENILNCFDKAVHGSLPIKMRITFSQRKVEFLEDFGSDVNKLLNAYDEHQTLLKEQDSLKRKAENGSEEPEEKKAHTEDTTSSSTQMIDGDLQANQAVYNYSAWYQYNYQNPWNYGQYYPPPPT
UniProt P11908: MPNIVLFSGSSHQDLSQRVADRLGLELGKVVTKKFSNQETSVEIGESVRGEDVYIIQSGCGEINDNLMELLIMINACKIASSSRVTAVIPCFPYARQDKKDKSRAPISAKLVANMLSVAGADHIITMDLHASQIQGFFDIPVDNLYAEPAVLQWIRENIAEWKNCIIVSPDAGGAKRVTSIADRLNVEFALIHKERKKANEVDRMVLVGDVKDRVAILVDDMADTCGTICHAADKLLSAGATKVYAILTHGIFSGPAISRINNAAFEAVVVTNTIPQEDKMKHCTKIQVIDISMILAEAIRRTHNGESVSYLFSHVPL
UniProt P25786: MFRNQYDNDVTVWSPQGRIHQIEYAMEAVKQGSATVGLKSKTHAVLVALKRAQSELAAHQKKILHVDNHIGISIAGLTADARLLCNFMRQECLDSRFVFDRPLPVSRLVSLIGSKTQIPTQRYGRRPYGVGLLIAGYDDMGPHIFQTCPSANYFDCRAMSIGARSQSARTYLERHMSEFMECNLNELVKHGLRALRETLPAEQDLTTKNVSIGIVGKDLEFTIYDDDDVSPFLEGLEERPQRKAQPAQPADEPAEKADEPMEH

Target | probe-labelled cysteine peptide fold change (10 µM) | probe-labelled cysteine peptide fold change (50 µM)
PRUNE1_Q86TP1_180_QTAALLHGTIILDCVNMDLK (UniProt Q86TP1) | 0.322 | 0.175
PRPF19_Q9UMS4_351+355_VTDETSGCSLTCAQFHPDGLIFGTGTMDSQIK (UniProt Q9UMS4) | 0.125 | 0.0895
PRKCB_P05771_132+135_CDTCMMNVHKR (UniProt P05771) | -0.193 | -0.881
PRKDC_P78527_4061_KLAGANPAVITCDELLLGHEK (UniProt P78527) | -0.0739 | -0.151
PRKCD_Q05655_459_ATFYAAEIMCGLQFLHSK (UniProt Q05655) | -0.178 | 0.369
PRKDC_P78527_1335_CTVVVR (UniProt P78527) | 0.00715 | 0.101
PRKCB_P05771_132_CDTCMMNVHK (UniProt P05771) | 0.095 | -0.102
PRKAR1A_P10644_362_VLGPCSDILK (UniProt P10644) | -0.272 | 0.19
PRPF6_O94906_513_ANGVEINREQWIQDAEECDR (UniProt O94906) | -0.364 | -0.497
PRKCD_Q05655_247_VHNYMSPTFCDHCGSLLWGLVK (UniProt Q05655) | -0.553 | -0.908
PRKDC_P78527_457_MQLVCCR (UniProt P78527) | -0.451 | 0.188
PRR14L_Q5THK1_228_DLSAGCGEFQEVDK (UniProt Q5THK1) | -0.153 | -0.102
PRMT3_O60678_67_LFTSAEETFSHCK (UniProt O60678) | 0.049 | 0.0747
PRPF39_Q86UA1_450_TFEECVLGLAMVR (UniProt Q86UA1) | 0.0739 | 0.0216
PRKDC_P78527_1127+1135_SLGTIQQCCDAIDHLCR (UniProt P78527) | 0.0784 | -0.0108
PRKCD_Q05655_509_ASTFCGTPDYIAPEILQGLK (UniProt Q05655) | -0.222 | 0.515
PRPF19_Q9UMS4_298_IWSVPNASCVQVVR (UniProt Q9UMS4) | 0.193 | 0.163
PRMT5_O14744_622_KVWYEWAVTAPVCSAIHNPTGR (UniProt O14744) | -0.0156 | 0.0576
PRPF6_O94906_807_ALQECPNSGILWSEAIFLEARPQRR (UniProt O94906) | -0.234 | -0.451
PRPS2_P11908_226+230_DRVAILVDDMADTCGTICHAADK (UniProt P11908) | 0.366 | -0.386
PRKDC_P78527_2469_ELLNPVVEFVSHPSTTCR (UniProt P78527) | 0.0754 | 0.199
PSMA1_P25786_182_HMSEFMECNLNELVK (UniProt P25786) | 0.212 | 0.142
PRKCD_Q05655_208_CTGTAANSR (UniProt Q05655) | -0.42 | -0.345

Looked up one by one from the list above:
Target | probe-labelled cysteine peptide fold change (10 µM) | probe-labelled cysteine peptide fold change (50 µM)
PRPF39_Q86UA1_450_TFEECVLGLAMVR (UniProt Q86UA1) | 0.0739 | 0.0216
PSMA1_P25786_182_HMSEFMECNLNELVK (UniProt P25786) | 0.212 | 0.142

Source: the supplement of paper PMC12067093, “Discovery and optimisation of a covalent ligand for TRIM25 and its application to targeted protein ubiquitination” (Chemical Science, 2025)
